Source: PMC4786428, “Recombinational branch migration by the RadA/Sms paralog of RecA in Escherichia coli”
A negative result means that nothing was seen under these conditions. Tags and fusion partners may be left off the protein sequences shown. For at least one entry, the source does not settle the construct or the ends of the probe. The comparison behind a weaker result is the experiment's own reference, which may not be listed here. At least one verdict was read from the data and is not stated in words by the source.

Target: T1, RadA (Sms) wild type (Escherichia coli) (UniProt P24554)
T1 sequence (looked up): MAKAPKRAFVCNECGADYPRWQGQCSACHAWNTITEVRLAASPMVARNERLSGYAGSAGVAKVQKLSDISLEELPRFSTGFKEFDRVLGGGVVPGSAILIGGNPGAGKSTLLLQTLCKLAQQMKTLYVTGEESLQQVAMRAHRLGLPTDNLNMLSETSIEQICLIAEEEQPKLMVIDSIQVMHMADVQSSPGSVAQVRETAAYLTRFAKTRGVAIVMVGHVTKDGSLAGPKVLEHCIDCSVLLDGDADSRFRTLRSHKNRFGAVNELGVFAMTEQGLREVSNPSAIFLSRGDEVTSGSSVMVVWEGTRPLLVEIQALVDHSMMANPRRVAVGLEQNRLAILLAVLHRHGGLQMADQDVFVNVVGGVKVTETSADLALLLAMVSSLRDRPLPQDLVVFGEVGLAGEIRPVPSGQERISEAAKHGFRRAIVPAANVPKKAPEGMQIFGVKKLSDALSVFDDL
Assay: EMSA
Settings: 50 mM Tris-HCl pH 7.5, 10 mM MgCl2, 0.1 mM EDTA, 75 mM NaCl, 5 mM DTT, 100 ug/ml BSA, 1 mM nucleotide, 100 fmol DNA, 37 C for 20-30 min, recombinant protein, residues 1-460

[1] = very weakly bound, data not shown

CCGCTACCAGTGATCACCAATGGATTGCTAGGACATCTTTGCCCACCTGCAGGTTCACCC / TGGGTGAACCTGCAGGTGGGCAAAGATGTCCTAGCAATCCATTGTCTATGACGTCAAGCT / TGCCGATATTGACAAGACGGCAAAGATGTCCTAGCAATCCATTGGTGATCACTGGTAGCGG [3-stranded fork]
binding result [1]: binds more weakly

CCGCTACCAGTGATCACCAATGGATTGCTAGGACATCTTTGCCCACCTGCAGGTTCACCC / TGGGTGAACCTGCAGGTGGGCAAAGATGTCCTAGCAATCCATTGTCTATGACGTCAAGCT / AGCTTGACGTCATA [Fork 2]
binding result [1]: binds more weakly

CCGCTACCAGTGATCACCAATGGATTGCTAGGACATCTTTGCCCACCTGCAGGTTCACCC / TGGGTGAACCTGCAGGTGGGCAAAGATGTCCTAGCAATCCATTGTCTATGACGTCAAGCT / AGCTTGACGTCATA / GATCACTGGTAGCGG [Fork 4]
binding result [1]: binds more weakly

CCGCTACCAGTGATCACCAATGGATTGCTAGGACATCTTTGCCCACCTGCAGGTTCACCC / TGGGTGAACCTGCAGGTGGGCAAAGATGTCCTAGCAATCCATTGTCTATGACGTCAAGCT [Fork 1]
binding result [1]: binds more weakly

CCGCTACCAGTGATCACCAATGGATTGCTAGGACATCTTTGCCCACCTGCAGGTTCACCC / TGGGTGAACCTGCAGGTGGGCAAAGATGTCCTAGCAATCCATTGTCTATGACGTCAAGCT / GATCACTGGTAGCGG [Fork 3]
binding result [1]: binds more weakly

TTTTTTTTTTTTTTTTTTTTTTTTTTTTTT [poly(dT)30]
binding result (1 mM AMP-PNP, label: 5' 32P (unlabeled as competitor), single-stranded DNA): no binding
binding result (1 mM ATP, label: 5' 32P (unlabeled as competitor), single-stranded DNA): no binding
binding result (1 mM ATPgS, label: 5' 32P (unlabeled as competitor), single-stranded DNA): no binding
binding result (1 mM dATP, label: 5' 32P (unlabeled as competitor), single-stranded DNA): no binding
binding result (no nucleotide, label: 5' 32P (unlabeled as competitor), single-stranded DNA): no binding
